These are yes or no findings as the source states them, for the method shown. Binding can be weak; no strength is given. Sequences can lack the tags named with a protein.
Target: CTLA-4 stably expressed on the surface of Chinese Hamster Ovary cells (CHO::CTLA-4)
Assay: Flow cytometry on CHO::CTLA-4 cells; Jurkat culture supernatant, detected with rabbit anti-NGAL polyclonal antibody and Dylight594-labeled anti-rabbit antibody

binding: binds
B1: Anticalin-based CTLA-4 antagonist with Strep-tag II, mature processed secreted form (SEQ ID NO: 28) (designed binder)
chain: QDSTSDLIPAPPLSKVPLQQNFQDNQFQGKWYVVGLAGNRILRQDQHPMLMYATIYELKEDKSYQVTSVISSHKKCLYPIATFVPGSQPGEFTLGNIKSYGDKVSYLVRVVSTNYNQHAMVFFKHADTNYESFSITLYGRTKELTSELKENFIRFSKSLGLPENHIVFPVPIDQCIDGSAWSHPQFEK
notes: also called anti-CTLA-4 Anticalin; αCTLA-4
